Toxoplasma: 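Assay of Toxoplasma gondii numbers, read through their beta-galactosidase reporter with a colour substrate. Concentration: 10 µM. The record gives no direction; the compounds picked for IC50 retests had high values, so higher reads as fewer parasites. Size under these conditions: about 67,000 compounds, about 260 of them at 50% or above in at least one test.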
TcHisRS: 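Histidine-tRNA ligase, Trypanosoma cruzi CL Brener (UniProt Q4DA54). Enzyme assay of histidyl-tRNA synthetase; the read-out is not stated. Compounds at 30 µM. Higher reads as stronger inhibition (inferred: compounds with an IC50 in retests scored well above the rest). About 69,000 compounds were tested under these conditions; 0.045% (about 31) showed 50% or more at least once.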

The chains behind the UniProt entries cited, without tags or fusion partners. Residues count along the entry.
UniProt Q4DA54, 1-478: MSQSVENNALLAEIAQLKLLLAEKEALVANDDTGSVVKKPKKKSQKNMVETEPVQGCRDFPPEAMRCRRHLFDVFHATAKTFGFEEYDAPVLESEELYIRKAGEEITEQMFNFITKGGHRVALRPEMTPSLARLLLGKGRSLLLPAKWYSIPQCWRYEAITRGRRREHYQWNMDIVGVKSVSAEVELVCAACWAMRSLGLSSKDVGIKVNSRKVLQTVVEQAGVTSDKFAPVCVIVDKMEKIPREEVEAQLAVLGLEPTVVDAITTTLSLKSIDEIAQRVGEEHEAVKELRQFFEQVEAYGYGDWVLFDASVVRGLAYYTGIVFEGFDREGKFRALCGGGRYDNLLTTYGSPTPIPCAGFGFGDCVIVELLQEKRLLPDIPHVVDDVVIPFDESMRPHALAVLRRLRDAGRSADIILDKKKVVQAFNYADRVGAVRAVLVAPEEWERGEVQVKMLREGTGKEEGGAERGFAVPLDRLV

Results are given as percent effect.
The controls that fix the scale are not given in the record; negative values are as filed.
The compounds are a random part of those screened.
A dash means the value is not listed here; it may have been measured.

{"smiles": "CCn1c(C)nnc1CN(C)C1CCN(Cc2ccccn2)C1", "stereo": "stereo not shown", "Toxoplasma": 10.14, "TcHisRS": -2.326}
{"smiles": "CC(c1nc(C2CC2)no1)N1CCN(Cc2cccnc2)CC1", "stereo": "stereo not shown", "Toxoplasma": -0.6734, "TcHisRS": 1.667}
{"smiles": "N#Cc1cccc(CN2Cc3nccn3CC(COCC3CC3)C2)c1", "stereo": "stereo not shown", "TcHisRS": 16.08}
{"smiles": "Cc1ccc(C(=O)N2C[C@@H](C(=O)O)[C@H](c3ccncc3)C2)cc1F", "Toxoplasma": -9.155, "TcHisRS": 6.667}
{"smiles": "Cc1cc(C)n(CC2CCCCN2C(=O)CCc2ccncc2)n1", "stereo": "stereo not shown", "Toxoplasma": 5.379, "TcHisRS": -2.959}
{"smiles": "OCCn1nccc1C1CCN(CCOc2ccccc2Cl)CC1", "Toxoplasma": -44.11, "TcHisRS": 2.312}
{"smiles": "CCc1cccc(CC(=O)NC2CCN(C(=O)NC(C)(C)C)CC2)c1", "Toxoplasma": 2.14, "TcHisRS": 4.433}
{"smiles": "Cc1noc(NC(=O)c2ccc(C#N)cc2)n1", "Toxoplasma": 6.322, "TcHisRS": -8.092}
{"smiles": "CCOc1ccccc1C(CC(=O)Nc1ccccn1)NC(C)=O", "stereo": "stereo not shown", "Toxoplasma": 17.9, "TcHisRS": 1.775}
{"smiles": "CC(=O)N1CCN([C@@H]2CCC[C@@H](NC(=O)c3cccnc3)[C@H]2O)CC1", "Toxoplasma": 5.628, "TcHisRS": 1.111}
{"smiles": "CN(C(=O)c1cccn1C)C1CCC(NC(=O)OC(C)(C)C)CC1", "stereo": "stereo not shown", "Toxoplasma": -11.61, "TcHisRS": 0.9804}
{"smiles": "CCOCCN1CCCC1CS(N)(=O)=O", "stereo": "stereo not shown", "Toxoplasma": -9.612, "TcHisRS": 4.969}
{"smiles": "Cl.Cl.[H][C@@]12CNC[C@]1([H])OCCN2Cc1c(C)noc1C", "Toxoplasma": 2.81}
{"smiles": "CCn1nc(C)c2nc(C(C)C)nc(NCc3ccccn3)c21", "Toxoplasma": 23.92, "TcHisRS": 1.754}
{"smiles": "COC1COC2(CCN(Cc3ccc4ccccc4n3)CC2)C1.O=C(O)C(F)(F)F.O=C(O)C(F)(F)F", "stereo": "stereo not shown", "Toxoplasma": -11.31}
{"smiles": "O=C(CCn1c(=O)oc2ccccc21)NCC(O)c1ccccc1", "stereo": "stereo not shown", "Toxoplasma": 5.447, "TcHisRS": 9.901}
{"smiles": "CN(Cc1ccsc1)c1nc(-c2ccccn2)nc2c1CCNCC2", "Toxoplasma": 6.329, "TcHisRS": 13.86}
{"smiles": "COCCN1CCCC2(CCN(c3nccc4ccccc34)C2)C1=O", "stereo": "stereo not shown", "Toxoplasma": -0.339, "TcHisRS": 0}
{"smiles": "CC(C)(N)c1nc(C(F)F)cc(=O)[nH]1", "TcHisRS": 2.128}
{"smiles": "CCN(CC)C(=O)c1ccc(-c2ccsc2)nc1C", "Toxoplasma": -9.363, "TcHisRS": 7.317}
{"smiles": "O=C(O)C(F)(F)F.[H][C@@]12COC[C@]1([H])[C@H](NC(=O)c1cccn1C)CN2Cc1cccs1", "Toxoplasma": 8.789}
{"smiles": "O=C(c1cccc2c1OCO2)N1CCCC1c1noc(C2CC2)n1", "stereo": "stereo not shown", "TcHisRS": 0.7519}
{"smiles": "O=C(NCCn1nc2ccccn2c1=O)c1cc(C2CC2)[nH]n1", "Toxoplasma": 2.357, "TcHisRS": -4.167}
{"smiles": "O=C1CN(C(=O)c2nnn(-c3ccc(C(F)(F)F)cc3)n2)CCN1", "Toxoplasma": 7.979, "TcHisRS": 2.062}
{"smiles": "O=C(CC(F)(F)F)NCC(O)c1ccc2ccccc2c1", "stereo": "stereo not shown", "Toxoplasma": -14.91, "TcHisRS": 1.053}
{"smiles": "[H][C@]12CC[C@]([H])(CN(C(=O)c3ccccn3)C1)N(C(=O)Cc1cccs1)C2", "Toxoplasma": -5.596}
{"smiles": "CC(=O)N1CC2(CCNCC2)c2cc(C)ccc21", "Toxoplasma": -3.832, "TcHisRS": 4.926}
{"smiles": "COCCC1COC2(CCN(C(=O)C3CCCCC3)CC2)C1", "stereo": "stereo not shown", "Toxoplasma": -6.355, "TcHisRS": 10.34}
{"smiles": "CC(C)C(NC(=O)NCCNc1ncccn1)c1cccs1", "stereo": "stereo not shown", "Toxoplasma": 1.19, "TcHisRS": 5.172}
{"smiles": "CC1CN(CCOc2cccc(C#N)c2)CCN1Cc1nccn1C", "stereo": "stereo not shown", "Toxoplasma": 3.989, "TcHisRS": 4.678}
{"smiles": "CCOCCCn1c(NC(=O)c2ccnc(C)n2)nc2ccccc21", "Toxoplasma": -0.5236, "TcHisRS": 5.714}
{"smiles": "COc1ccc(CN(Cc2cnc(N)nc2)CC2CCCO2)c(OC)c1.O=C(O)CC(O)(CC(=O)O)C(=O)O", "stereo": "stereo not shown", "Toxoplasma": -17.44}
{"smiles": "Cc1ncsc1C(=O)NC1CCN(Cc2ccc(C(N)=O)cc2)CC1", "Toxoplasma": -11.12, "TcHisRS": 6.916}
{"smiles": "Cc1ccccc1C(O)c1ccncc1", "stereo": "stereo not shown", "Toxoplasma": 13.17, "TcHisRS": 11.34}
{"smiles": "Cc1c(C(=O)N2CCN(c3ccccn3)CC2)n(C)c2ccc(Cl)cc12", "Toxoplasma": 1.398, "TcHisRS": 16.49}
{"smiles": "COc1cc(C2CC(=O)Oc3cc(C)[nH]c(=O)c32)ccc1OCC(=O)O", "stereo": "stereo not shown", "Toxoplasma": -14.38, "TcHisRS": 1.205}
{"smiles": "COc1ccc(CN2CCCn3nnc(COCC4CC4)c3C2)cc1", "TcHisRS": 1.02}
{"smiles": "Cc1nc(N2CCCCC2)ncc1C(=O)N1CC(C)(C)[C@@](C)(O)C1", "Toxoplasma": -1.01, "TcHisRS": 1.695}
{"smiles": "CC(C)CNC(=O)c1nc2c(s1)CCN(C(=O)c1cccnc1)CC2", "Toxoplasma": -1.82, "TcHisRS": 4.598}
{"smiles": "Cc1nc2n(n1)CCN(S(=O)(=O)c1ccc(Cl)cc1)C2", "Toxoplasma": -8.018, "TcHisRS": 3.922}

Repeated from the top, 4 entries:

SMILES,Toxoplasma,TcHisRS
CCn1c(C)nnc1CN(C)C1CCN(Cc2ccccn2)C1 (stereo not shown),10.14,-2.326
CC(c1nc(C2CC2)no1)N1CCN(Cc2cccnc2)CC1 (stereo not shown),-0.6734,1.667
N#Cc1cccc(CN2Cc3nccn3CC(COCC3CC3)C2)c1 (stereo not shown),-,16.08
Cc1ccc(C(=O)N2C[C@@H](C(=O)O)[C@H](c3ccncc3)C2)cc1F,-9.155,6.667

The values are deposited in ChEMBL (CHEMBL3988442, “University of Dundee, Small-Polar-MMV Screening Library” (2021)).